Results are given in words; binding and its absence hold for the method and conditions named. In cells and extracts the contact can be indirect. Some entries that bind do so weakly or less than the wild type. Where a sequence is shown, tags or fusion partners need not be part of it.
T1: Myc tagged Da (fly (Drosophila)) (UniProt P11420)
T1 sequence (looked up): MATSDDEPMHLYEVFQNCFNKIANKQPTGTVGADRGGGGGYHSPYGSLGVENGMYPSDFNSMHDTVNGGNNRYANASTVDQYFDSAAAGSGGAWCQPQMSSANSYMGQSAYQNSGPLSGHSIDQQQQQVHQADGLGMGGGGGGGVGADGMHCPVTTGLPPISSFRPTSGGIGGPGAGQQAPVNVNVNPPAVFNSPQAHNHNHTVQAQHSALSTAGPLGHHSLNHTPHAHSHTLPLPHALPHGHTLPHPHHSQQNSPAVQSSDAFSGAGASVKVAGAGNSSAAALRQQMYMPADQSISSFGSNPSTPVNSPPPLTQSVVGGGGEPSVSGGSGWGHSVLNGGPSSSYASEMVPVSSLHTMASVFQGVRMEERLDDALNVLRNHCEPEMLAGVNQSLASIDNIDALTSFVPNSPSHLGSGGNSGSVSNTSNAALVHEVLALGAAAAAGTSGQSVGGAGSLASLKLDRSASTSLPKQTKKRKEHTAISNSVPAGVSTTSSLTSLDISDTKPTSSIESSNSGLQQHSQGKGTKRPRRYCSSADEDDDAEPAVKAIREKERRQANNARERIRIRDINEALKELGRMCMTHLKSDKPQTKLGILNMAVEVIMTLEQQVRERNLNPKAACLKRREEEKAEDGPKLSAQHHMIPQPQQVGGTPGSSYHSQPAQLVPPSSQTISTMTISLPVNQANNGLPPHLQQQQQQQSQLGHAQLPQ


Key:
[1] = biological target: T1, Myc tagged Da (fly (Drosophila)); test: co-immunoprecipitation of 35S-labeled protein with Da-Myc using anti-Myc antibodies, SDS-PAGE autoradiography
[2] = biological target: T1, Myc tagged Da (fly (Drosophila)); test: co-immunoprecipitation of 35S-labeled protein with Myc tagged Da using anti-Myc antibodies (FIG. 4, Panel A)

binding [1]	binding [2]	Binder
binds	–	mouse MATH1 (protein, UniProt P48985 1-351, looked up) MSRLLHAEEWAEVKELGDHHRHPQPHHVPPLTPQPPATLQARDLPVYPAELSLLDSTDPRAWLTPTLQGLCTARAAQYLLHSPELGASEAAAPRDEADSQGELVRRSGCGGLSKSPGPVKVREQLCKLKGGVVVDELGCSRQRAPSSKQVNGVQKQRRLAANARERRRMHGLNHAFDQLRNVIPSFNNDKKLSKYETLQMAQIYINALSELLQTPNVGEQPPPPTASCKNDHHHLRTASSYEGGAGASAVAGAQPAPGGGPRPTPPGPCRTRFSGPASSGGYSVQLDALHFPAFEDRALTAMMAQKDLSPSLPGGILQPVQEDNSKTSPRSHRSDGEFSPHSHYSDSDEAS
binds	–	fly ATO (protein, fly (Drosophila), UniProt P48987 1-312, looked up) MSSSEIYRYYYKTSEDLQGFKTAAAEPYFNPMAAYNPGVTHYQFNGNTLASSSNYLSANGFISFEQASSDGWISSSPASHRSESPEYVDLNTMYNGGCNNMAQNQQYGMIMEQSVVSTAPAIPVASPPAVEVMGSSNVGTCKTIPASAGPKPKRSYTKKNQPSTTATSTPTAAAESSASVNLYTEEFQNFDFDNSALFDDSVEDDEDLMLFSGGEDFDGNDGSFDLADGENQDAAAGGSGKKRRGKQITPVVKRKRRLAANARERRRMQNLNQAFDRLRQYLPCLGNDRQLSKHETLQMAQTYISALGDLLR
binds	binds	mouse NGN1 (protein, UniProt P70660 1-244, looked up) MPAPLETCISDLDCSSSNSSSDLSSFLTDEEDCARLQPLASTSGLSVPARRSAPALSGASNVPGAQDEEQERRRRRGRARVRSEALLHSLRRSRRVKANDRERNRMHNLNAALDALRSVLPSFPDDTKLTKIETLRFAYNYIWALAETLRLADQGLPGGSARERLLPPQCVPCLPGPPSPASDTESWGSGAAASPCATVASPLSDPSSPSASEDFTYGPGDPLFSFPGLPKDLLHTTPCFIPYH

— US20060019386A1
